PubChem BioAssay AID1259254 | NCATS, 2017

Assay: 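Finding genes that stop cells copying their DNA twice in one cycle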 (primary screen)
System: human HCT116 colorectal cancer cells
Reagents: single siRNA against human genes
Duration: 3 days
Measurement: 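Nuclei stained with Hoechst and imaged; cell-cycle phase assigned by DNA content; G2 share scaled per plate, non-targeting siRNA 0%, GMNN siRNA 100%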
Scale: G2 robust z-score and G2 cells, % of GMNN control: higher = more G2 cells, more excess DNA replication; raw share of cells in G2: higher = larger share of cells with G2 DNA content
Hit rule: 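Active siRNAs have a G2 robust z of 5 or more median absolute deviations over the median, which in these data means about 38% or higher of GMNN control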
Here is a random part of about 59,000 reagents. About 1,550 of all reagents (2.6%) were called active. 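G2 share is only a proxy for re-replication; each gene was hit by three separate siRNAs, and active genes were retested.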 Raw values vary from plate to plate and are shown uncorrected. Unmarked entries are inactive. The numbers tell different reagents against one gene apart. Not stated in the record: the amount of reagent.

| Target gene | siRNA no. | G2 robust z-score | G2 cells, % of GMNN control | raw share of cells in G2 (%) |
| --- | --- | --- | --- | --- |
| ZNF746 | 1 | 0.32 | 5.22 | 4.98 |
| ZNF746 | 2 | 2.52 | 20.7 | 10.2 |
| ZNF746 | 3 | -0.267 | 1.09 | 3.91 |
| PPP1R12A | 1 | 1.42 | 12.9 | 9 |
| PPP1R12A | 2 | 2.55 | 20.9 | 10.6 |
| PPP1R12A | 3 | 4.62 | 35.5 | 14.2 |
| VENTX | 1 | -0.771 | -2.46 | 5.05 |
| VENTX | 2 | -1.37 | -6.67 | 1.97 |
| VENTX | 3 | -0.304 | 0.826 | 4.26 |
| KLHL20 | 1 | 2.56 | 21 | 15.7 |
| KLHL20 | 2 | 0.156 | 4.06 | 5.54 |
| KLHL20 | 3 | 2.36 | 19.6 | 10.4 |
| VOPP1 | 1 | -0.308 | 0.803 | 2.6 |
| VOPP1 | 2 | -0.0764 | 2.43 | 5.45 |
| VOPP1 | 3 | -0.908 | -3.42 | 2.81 |
| EBLN2 | 1 | -0.818 | -2.79 | 3.45 |
| EBLN2 | 2 | -0.577 | -1.1 | 3.68 |
| EBLN2 | 3 | -0.135 | 2.02 | 3.78 |
| EIF4E1B | 1 | 1.07 | 10.5 | 7.39 |
| EIF4E1B | 2 | 0.632 | 7.41 | 5.67 |
| EIF4E1B | 3 | -0.6 | -1.25 | 2.79 |
| WDR27 | 1 | 1.37 | 12.6 | 8.14 |
| WDR27 | 2 | 7.17 (active) | 53.4 | 21.4 |
| WDR27 | 3 | 0.583 | 7.07 | 5.45 |
| KRT32 | 1 | 0.409 | 5.85 | 6.35 |
| KRT32 | 2 | 0.0691 | 3.45 | 6.3 |
| KRT32 | 3 | -0.145 | 1.95 | 6.42 |
| MATK | 1 | -1.07 | -4.56 | 4.1 |
| MATK | 2 | 0.441 | 6.07 | 7.45 |
| MATK | 3 | -0.578 | -1.1 | 3.64 |

3 entries from above, ordered by “G2 cells, % of GMNN control”, lowest first:
| Target gene | siRNA no. | G2 robust z-score | G2 cells, % of GMNN control | raw share of cells in G2 (%) |
| --- | --- | --- | --- | --- |
| VENTX | 1 | -0.771 | -2.46 | 5.05 |
| PPP1R12A | 2 | 2.55 | 20.9 | 10.6 |
| PPP1R12A | 3 | 4.62 | 35.5 | 14.2 |
